Whole data set: some 1,700 compounds, median “T2 sensor activation Q score (MG/GFP ratio z-score vs DMSO controls)” near 0.3, cut for the highest 2% near 1.9. The list shows a part of the results.
Tested on: ppGalNAc-T2 sensor
Assay: T2 sensor activation Q score (MG/GFP ratio z-score vs DMSO controls) (SD units); higher = more sensor activation (inhibition of ppGalNAc-T2 glycosylation)
Conditions: HEK293 sensor cells; 10 µM; 6 h
Procedure: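 Cells were treated with compound at 10 uM for 6 h, then MG/GFP ratio was read by flow cytometry (10,000 cells per well, duplicate wells). Q = (R - R_neg)/SD_neg relative to DMSO vehicle controls; the signal rises when the glycosyltransferase is inhibited.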

SMILES | T2 sensor activation Q score
COc1cc(NC(=O)CCl)ccc(=O)c1 | 0.6
Cc1[nH]c(=S)[nH]c(=O)c1Cc1c(O)ccc2ccccc12 | -0.3
CC(=O)Oc1ccc(OC(C)=O)c2c1CC1(C)OC1(C)C2 (stereo unspecified) | 0.5
NC(=O)N/N=C1\CC2CC1C1C=CCC21 (stereo unspecified) | 1.05
CCN1CCCCC(=NO)C(=NO)CCCC1 | 1.05
NC(N)=N/N=C\c1c(Cl)cccc1Cl | 0.25
O=C(O)c1ccccc1-c1ccccc1C(=O)Nc1ccc2c(c1)[nH]c(=O)c1ccccc12 | -0.35
CC(C)C[C@H](NC(=O)[C@H](CCc1ccccc1)NC(=O)CN1CCOCC1)C(=O)N[C@@H](Cc1ccccc1)C(=O)N[C@@H](CC(C)C)C(=O)[C@@]1(C)CO1 | -1.65
c1ccc(-c2nc(-c3nccc4ccccc34)oc2-c2ccccc2)cc1 | 1.4
CCOC(=O)C(=O)C1C(=O)Nc2ccccc21 (stereo unspecified) | 1.15
O=C(OCC(O)COC(=O)c1cccnc1)c1cccnc1 | 1.3
O=[N+]([O-])c1cccc(-c2nc3ccccc3s/c2=N/O)c1 | 1.25
O=C(O)c1c[nH]n2c(=S)ncnc12 | -0.95
Cc1ccc(NC(=S)NC(=O)c2ccccc2)cc1NC(=S)NC(=O)c1ccccc1 | 0.6
Nc1ccc(Oc2ccc(N)c([N+](=O)[O-])c2)cc1[N+](=O)[O-] | -0.3
O=[N+]([O-])c1ccccc1/C=C/C=N/N=C/c1ccccc1O | 0.95
O=C(O)C(Cc1ccccc1N(CCO)CCO)N1C(=O)c2ccccc2C1=O (stereo unspecified) | 0.25
Cc1nc(N)nc(Nc2ccc(C#N)cc2)c1Br | 2.35
CSc1ccc(NC(=O)Nc2cc(C)ccn2)cc1 | -0.2
CCCCN1C(=O)CC(C(=O)OCC)=C1C | -0.2
CCN(CC)Cc1cc2[nH]c3c4ccc(Cl)cc4ncc3c2cc1OC | -2.1

SMILES | T2 sensor activation Q score
O=C1c2ccccc2C(=O)N1c1ncn[nH]1 | 1.9
CN(C)S(=O)(=O)N1C(=O)c2ccccc2C1=O | 1.25
Nc1ccc(N=Nc2ccccc2)c2ccccc12 | -0.25
O=C(c1cccnc1)C1Cc2ccccc2C1=O (stereo unspecified) | 1.8
COc1ccc(NC2=CC(=S)NC(C)(C)C2)cc1 | -0.7
Cc1cc(=O)c2cc(C(=O)c3ccccc3)ccc2[nH]1 | 1.05
O=C(Nc1ccc(Nc2ccncc2)cc1)c1ccc([N+](=O)[O-])cc1 | 0.45
CCOC(=O)Nc1csnn1 | -1
Cc1cc(NC(=O)Nc2cccc3ccccc23)no1 | 1.05
Cn1c(=O)c2c(nc(N3CCOCC3)n2C)n(C)c1=O | -0.1
Cc1nc(SCC(=O)O)n[nH]1 | -1.55
CCN(CC)CCNC(=O)c1ccc(NCN2C(=O)NC(c3ccccc3)(c3ccccc3)C2=O)cc1 | 0.8
C=CC1CN2CCC1CC2C(O)c1ccnc2ccc(OC)cc12 (stereo unspecified) | -1.25
CCOC(=O)c1ccc2c(c1)NCc1cccc(OC)c1O2 | 1.6
COc1cc(NC(C)=O)c2ncccc2c1NC(C)=O | 1.4
COc1ccc(Nc2cc(Cl)ccc2C(=O)O)cn1 | 2.25
COc1cc(OC)c2c(=O)cc(-c3cccnc3)oc2c1 | 0.8
CN1CCC(=C(c2ccc(Cl)cc2)c2ccccn2)CC1 | -0.05
Cc1nn(-c2ccccc2)nc1C(=O)Nc1ccc2[nH]ncc2c1 | -1.55
O=C(C=C=Nc1ccccc1)C(=O)N=C=Cc1ccccc1 | -0.9
Cc1ccc(C)c(-n2c(-c3ccc(Br)cc3)csc2=NC(=O)c2ccccc2F)c1 | 0.05

SMILES | T2 sensor activation Q score
COc1ccc(NC2=NC(C)(CO)CS2)cc1 (stereo unspecified) | 0.5
O=C(Nc1ccc(F)cc1)OCCOc1ccc([N+](=O)[O-])cc1 | -0.75
CC(C)(C)c1ccc(NS(=O)(=O)c2ccc(N)cc2)cc1 | -1.55
CCNc1ccccc1C(=O)O | -0.2
CN(C)c1ccc(/C=N\NC(=O)c2cnc3ccccc3c2)cc1 | -0.3
NC(=O)CCC(C(=O)O)N1C(=O)c2ccc(O)cc2C1=O (stereo unspecified) | 1.15
CC(C)(C)c1ccc(C(=O)N2CCOC23CCCCC3)cc1 | -0.9
Cc1ccc(N=Nc2ccc(C)cc2NC(=O)Nc2ccccc2F)cc1 | 0
Cc1ccc(S(=O)(=O)CCOC(=O)CNC(=O)OCc2ccccc2)cc1 | -0.1
Nc1nc(Cl)nc2c1ncn2[C@@H]1O[C@H](CO)[C@@H](O)[C@@H]1F | -0.85
Cc1nc2ccc(N)nc2nc1C | -0.65
CCOC(=O)C(=CNc1ccccc1Cl)C(=O)OCC | 0.75
C/C(=N/O)[C@H]1CC[C@H]2[C@@H]3CC[C@@H]4C/C(=N\O)CC[C@]4(C)[C@H]3[C@@](C)(O)C[C@]12C | 0.5
COc1ccc(OCC(O)CN2CCN(c3ccc(Cl)cc3)CC2)cc1 (stereo unspecified) | 0.25
C=C1SC(=Nc2c(C)cccc2Cl)N(C(=O)c2sc3ccccc3c2Cl)C12CCCCC2 | 1.1
COc1c(NC=O)c2c(c([N+](=O)[O-])c1OC)C(=O)OC2 | 1.65
Cc1ccccc1NC(=S)Nc1ccccn1 | -0.5
O=S1(=O)CSCS(=O)(=O)C1 | 0.3
O=C1c2ccccc2C(=Cc2cccnc2)c2ccccc21 | 0.2

As a working copy, some entries already given.
SMILES | T2 sensor activation Q score
CN(C)c1ccc(/C=N\NC(=O)c2cnc3ccccc3c2)cc1 | -0.3
NC(=O)CCC(C(=O)O)N1C(=O)c2ccc(O)cc2C1=O (stereo unspecified) | 1.15
CC(C)(C)c1ccc(C(=O)N2CCOC23CCCCC3)cc1 | -0.9
Cc1ccc(N=Nc2ccc(C)cc2NC(=O)Nc2ccccc2F)cc1 | 0
